Values of other authors, collected in US9603878B2, “Probiotic and prebiotic compositions, and methods of use thereof for treatment and prevention of graft versus host disease” (Evelo Biosciences, Inc., priority 2014, dated 2017).
For at least one compound, name, drawing or mass did not settle the structure.

Test system: Tregs in the large intestine
Details: germ-free mice and vancomycin-treated conventional mice; cited from earlier work

SMILES: CCCC(=O)O [butyrate]
- numbers of Tregs in the large intestine: restored normal numbers of Tregs in the large intestine
